From US11266655B2, “Methods and compositions for treating urea cycle disorders” (Camp4 Therapeutics Corporation, priority 2019, dated 2022)
For at least one compound, name, drawing or mass did not settle the structure.

Legend:
[1] = system: urea cycle genes; test: RNA-seq of primary human hepatocytes, compounds that modulate multiple urea cycle-related genes; type: cell-based
[2] = target: bacterial DNA-dependent RNA synthesis; settings: cited from earlier work

SMILES	number of urea cycle genes whose expression was significantly up-regulated [1]	Ki [2] [nM]
Cc1nc(Nc2ncc(C(=O)Nc3c(C)cccc3Cl)s2)cc(N2CCN(CCO)CC2)n1 [Dasatinib]	seven	
CO[C@H]1/C=C/O[C@@]2(C)Oc3c(C)c(O)c4c(O)c(c(/C=N/N5CCN(C)CC5)c(O)c4c3C2=O)NC(=O)/C(C)=C\C=C\[C@H](C)[C@H](O)[C@@H](C)[C@@H](O)[C@@H](C)[C@H](OC(C)=O)[C@@H]1C [Rifampicin]		~1
